# Laboratory results published in patent EP0950398A2, “Use of esters as dispersants or solvents in sunscreens and solar protection pigments” (Henkel Kommanditgesellschaft auf Aktien, priority 1998, dated 1999).
# At least one structure is not confirmed: it was looked up by name or label, or the drawing left a doubt.
# Assay: UV absorption of 5 ppm Octylmethoxy Cinnamate dissolved in different oil bodies (absorption increase)
# Type: physicochemical
# Settings: 5 ppm Octylmethoxy Cinnamate in the oil body, 1-cm cuvette, 308 nm; absorption in Mineralöl taken as 100 %
# Source text: Zur Bestimmung der Absorptionssteigerung wurden Lösungen von 5 ppm Octylmethoxy Cinnamate in verschiedenen Ölkörpern hergestellt und die UV-Absorption in einer 1-cm Küvette bei einer Wellenlänge von 308 nm bestimmt. Die Absorption in Mineralöl wurde dazu als 100 % angenommen und alle übrigen Absorptionen dazu ins Verhältnis gesetzt. Des weiteren wurden verschiedene UV-Filter (OT = Octyl Triazone; BMDBM = Butyl Methoxydibenzoylmethane; B3 = Benzophenone-3 und 4MBC = 4-Methylbenzyliden Camphor) in den Ölkörpern in der Wärme gelöst und die Löslichkeit bei 15°C bestimmt. Die Ergebnisse sind in Tabelle 1 zusammengefaßt. Tabelle 1
structure (smiles),measurement,value
CCCCCCCCCCC(CO)CCCCCCCC (stereo not shown) [Octyldodecanol],Absorptionssteigerung,107%
